Results: the supplement of paper PMC10849652
This is one part of the list.

Protein sequences, listed by entry. Tags and fused reporters are not part of them. Lines headed by an entry give the natural chain unless they say otherwise; changes in a name come on top.
UniProt P57740: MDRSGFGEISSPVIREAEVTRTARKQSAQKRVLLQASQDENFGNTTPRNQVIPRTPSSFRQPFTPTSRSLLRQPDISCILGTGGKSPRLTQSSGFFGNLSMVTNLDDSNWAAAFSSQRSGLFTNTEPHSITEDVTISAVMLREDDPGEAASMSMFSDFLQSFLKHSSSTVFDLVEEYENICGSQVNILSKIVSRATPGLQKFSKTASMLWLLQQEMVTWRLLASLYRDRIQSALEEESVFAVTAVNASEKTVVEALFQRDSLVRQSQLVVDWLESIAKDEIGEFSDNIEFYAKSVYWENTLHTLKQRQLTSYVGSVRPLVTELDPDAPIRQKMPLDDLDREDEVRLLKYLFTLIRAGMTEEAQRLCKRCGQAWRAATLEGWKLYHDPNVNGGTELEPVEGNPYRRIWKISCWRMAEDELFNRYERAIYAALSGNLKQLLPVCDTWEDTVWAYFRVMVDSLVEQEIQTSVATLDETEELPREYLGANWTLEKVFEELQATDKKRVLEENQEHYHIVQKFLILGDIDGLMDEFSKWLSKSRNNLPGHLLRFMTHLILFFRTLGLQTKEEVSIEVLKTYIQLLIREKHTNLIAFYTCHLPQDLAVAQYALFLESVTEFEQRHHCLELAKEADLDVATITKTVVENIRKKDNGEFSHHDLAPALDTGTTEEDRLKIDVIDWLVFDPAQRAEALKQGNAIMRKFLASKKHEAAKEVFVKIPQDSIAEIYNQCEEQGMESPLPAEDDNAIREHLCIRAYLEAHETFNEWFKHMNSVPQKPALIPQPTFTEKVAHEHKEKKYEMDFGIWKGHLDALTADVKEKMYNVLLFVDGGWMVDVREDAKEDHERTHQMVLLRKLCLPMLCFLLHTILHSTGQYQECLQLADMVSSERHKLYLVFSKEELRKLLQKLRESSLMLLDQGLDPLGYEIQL
UniProt Q9UGY1: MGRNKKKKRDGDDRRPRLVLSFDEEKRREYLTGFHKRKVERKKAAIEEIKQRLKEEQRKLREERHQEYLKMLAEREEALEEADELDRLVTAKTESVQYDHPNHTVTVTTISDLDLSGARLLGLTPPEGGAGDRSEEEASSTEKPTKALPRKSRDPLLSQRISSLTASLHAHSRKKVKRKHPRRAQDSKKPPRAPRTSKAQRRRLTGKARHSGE
UniProt Q8WV74: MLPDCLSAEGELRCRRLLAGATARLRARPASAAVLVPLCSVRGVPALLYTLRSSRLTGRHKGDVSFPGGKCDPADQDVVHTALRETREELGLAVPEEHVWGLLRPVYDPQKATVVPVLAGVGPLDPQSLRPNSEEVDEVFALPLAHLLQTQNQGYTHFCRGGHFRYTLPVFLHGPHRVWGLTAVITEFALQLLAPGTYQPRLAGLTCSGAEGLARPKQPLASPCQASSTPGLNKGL
UniProt O95989: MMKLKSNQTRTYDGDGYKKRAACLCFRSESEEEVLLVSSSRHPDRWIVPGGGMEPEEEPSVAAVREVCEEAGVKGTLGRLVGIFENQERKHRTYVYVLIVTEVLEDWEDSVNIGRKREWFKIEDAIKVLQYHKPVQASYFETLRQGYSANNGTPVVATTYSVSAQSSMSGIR
UniProt P15559, whole entry, looked up: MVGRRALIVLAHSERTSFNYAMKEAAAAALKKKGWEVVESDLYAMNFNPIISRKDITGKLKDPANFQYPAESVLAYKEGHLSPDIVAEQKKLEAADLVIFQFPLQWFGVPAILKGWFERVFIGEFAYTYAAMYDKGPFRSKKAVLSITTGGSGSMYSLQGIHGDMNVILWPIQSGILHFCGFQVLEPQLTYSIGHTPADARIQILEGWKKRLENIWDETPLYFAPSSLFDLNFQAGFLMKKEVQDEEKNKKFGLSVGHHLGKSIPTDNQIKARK
UniProt Q96MF7: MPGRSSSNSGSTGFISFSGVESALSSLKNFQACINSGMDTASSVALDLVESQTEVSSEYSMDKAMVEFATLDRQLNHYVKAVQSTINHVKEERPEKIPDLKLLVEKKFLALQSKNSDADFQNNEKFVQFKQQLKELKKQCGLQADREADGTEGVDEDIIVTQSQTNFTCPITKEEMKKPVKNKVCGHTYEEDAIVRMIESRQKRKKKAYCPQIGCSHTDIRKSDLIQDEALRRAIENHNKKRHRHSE
UniProt Q5TFE4: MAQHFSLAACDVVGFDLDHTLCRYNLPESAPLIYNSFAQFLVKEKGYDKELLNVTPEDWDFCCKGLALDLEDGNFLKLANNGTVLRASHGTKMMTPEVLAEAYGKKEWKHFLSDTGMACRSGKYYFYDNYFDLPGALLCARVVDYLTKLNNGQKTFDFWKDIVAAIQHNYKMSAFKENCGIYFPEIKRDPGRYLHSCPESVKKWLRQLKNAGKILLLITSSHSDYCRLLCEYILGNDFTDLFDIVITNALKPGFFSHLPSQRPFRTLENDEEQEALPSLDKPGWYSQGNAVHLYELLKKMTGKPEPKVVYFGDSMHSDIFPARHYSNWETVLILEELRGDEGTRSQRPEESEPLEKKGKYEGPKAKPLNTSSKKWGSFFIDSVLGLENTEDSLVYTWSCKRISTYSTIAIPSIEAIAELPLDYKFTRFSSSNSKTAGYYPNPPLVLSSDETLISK
UniProt Q9NZJ9: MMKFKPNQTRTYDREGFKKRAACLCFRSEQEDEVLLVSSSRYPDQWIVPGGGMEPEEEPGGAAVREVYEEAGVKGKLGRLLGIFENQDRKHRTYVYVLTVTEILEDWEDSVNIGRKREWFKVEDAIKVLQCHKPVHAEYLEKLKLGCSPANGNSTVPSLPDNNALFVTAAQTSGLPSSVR
UniProt Q08J23, whole entry, looked up: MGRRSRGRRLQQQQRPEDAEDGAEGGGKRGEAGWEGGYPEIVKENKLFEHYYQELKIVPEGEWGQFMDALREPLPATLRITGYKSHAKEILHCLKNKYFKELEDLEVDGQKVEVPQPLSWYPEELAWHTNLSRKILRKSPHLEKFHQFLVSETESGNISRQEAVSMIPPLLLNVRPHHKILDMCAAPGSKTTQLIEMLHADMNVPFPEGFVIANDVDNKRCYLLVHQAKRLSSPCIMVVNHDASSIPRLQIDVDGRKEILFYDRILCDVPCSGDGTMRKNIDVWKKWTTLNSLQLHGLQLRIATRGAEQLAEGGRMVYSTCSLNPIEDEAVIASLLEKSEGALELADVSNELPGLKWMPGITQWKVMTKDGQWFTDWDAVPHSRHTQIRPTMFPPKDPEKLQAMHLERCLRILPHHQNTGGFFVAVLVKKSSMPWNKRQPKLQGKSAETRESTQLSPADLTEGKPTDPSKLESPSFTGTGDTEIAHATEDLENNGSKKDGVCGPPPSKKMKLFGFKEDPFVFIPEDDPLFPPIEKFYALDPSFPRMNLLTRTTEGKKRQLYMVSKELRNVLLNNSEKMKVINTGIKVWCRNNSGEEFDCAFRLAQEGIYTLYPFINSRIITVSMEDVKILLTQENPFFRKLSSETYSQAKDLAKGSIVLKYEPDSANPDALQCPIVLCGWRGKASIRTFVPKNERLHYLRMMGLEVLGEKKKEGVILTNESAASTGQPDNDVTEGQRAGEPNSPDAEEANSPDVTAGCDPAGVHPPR
UniProt Q8WVJ2: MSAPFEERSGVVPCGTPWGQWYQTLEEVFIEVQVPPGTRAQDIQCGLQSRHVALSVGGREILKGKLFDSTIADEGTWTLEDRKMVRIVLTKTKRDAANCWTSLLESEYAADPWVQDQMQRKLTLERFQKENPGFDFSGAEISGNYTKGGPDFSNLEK
UniProt Q8TEA1: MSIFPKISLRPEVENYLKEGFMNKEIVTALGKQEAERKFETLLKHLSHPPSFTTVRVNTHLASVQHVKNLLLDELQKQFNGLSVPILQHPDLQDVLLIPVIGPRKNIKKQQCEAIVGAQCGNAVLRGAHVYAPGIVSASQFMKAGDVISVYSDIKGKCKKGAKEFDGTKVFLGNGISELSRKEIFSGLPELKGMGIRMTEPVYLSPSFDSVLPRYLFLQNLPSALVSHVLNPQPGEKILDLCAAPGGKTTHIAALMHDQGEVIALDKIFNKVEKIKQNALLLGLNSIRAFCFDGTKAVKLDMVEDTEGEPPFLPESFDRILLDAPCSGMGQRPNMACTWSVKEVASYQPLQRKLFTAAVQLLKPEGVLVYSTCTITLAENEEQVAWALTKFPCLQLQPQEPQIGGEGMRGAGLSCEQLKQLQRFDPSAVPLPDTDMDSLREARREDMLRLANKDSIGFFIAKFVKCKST
UniProt Q9UHY1: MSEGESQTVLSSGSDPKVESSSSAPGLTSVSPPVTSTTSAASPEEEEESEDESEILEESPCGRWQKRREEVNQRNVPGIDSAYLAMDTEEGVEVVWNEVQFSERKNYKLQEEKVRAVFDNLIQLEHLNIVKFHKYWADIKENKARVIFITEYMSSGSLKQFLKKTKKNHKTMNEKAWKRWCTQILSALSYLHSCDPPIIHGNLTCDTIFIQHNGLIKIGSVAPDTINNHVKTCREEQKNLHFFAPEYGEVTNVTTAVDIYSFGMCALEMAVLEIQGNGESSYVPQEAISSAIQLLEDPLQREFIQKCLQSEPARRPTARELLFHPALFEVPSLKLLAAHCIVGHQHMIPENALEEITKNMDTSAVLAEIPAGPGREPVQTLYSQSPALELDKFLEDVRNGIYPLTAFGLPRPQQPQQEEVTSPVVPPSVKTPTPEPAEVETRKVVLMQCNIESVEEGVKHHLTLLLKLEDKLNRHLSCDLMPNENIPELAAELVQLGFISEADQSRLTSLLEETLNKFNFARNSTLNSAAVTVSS
UniProt Q15738: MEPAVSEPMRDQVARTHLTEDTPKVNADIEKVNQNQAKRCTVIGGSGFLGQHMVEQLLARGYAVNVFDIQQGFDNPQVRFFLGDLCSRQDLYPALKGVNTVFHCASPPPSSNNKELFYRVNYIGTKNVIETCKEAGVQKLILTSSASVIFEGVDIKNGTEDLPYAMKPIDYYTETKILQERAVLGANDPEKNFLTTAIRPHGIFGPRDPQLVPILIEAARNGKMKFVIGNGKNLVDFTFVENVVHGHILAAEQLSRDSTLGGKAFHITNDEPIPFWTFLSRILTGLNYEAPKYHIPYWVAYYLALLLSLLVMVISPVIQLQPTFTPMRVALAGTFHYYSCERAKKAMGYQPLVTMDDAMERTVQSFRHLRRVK
UniProt Q8TCD5: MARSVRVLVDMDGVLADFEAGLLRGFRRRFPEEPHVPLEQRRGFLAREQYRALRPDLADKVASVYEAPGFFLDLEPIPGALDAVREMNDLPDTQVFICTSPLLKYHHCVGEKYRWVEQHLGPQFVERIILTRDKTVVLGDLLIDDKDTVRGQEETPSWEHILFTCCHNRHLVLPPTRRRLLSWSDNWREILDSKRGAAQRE
UniProt O75694: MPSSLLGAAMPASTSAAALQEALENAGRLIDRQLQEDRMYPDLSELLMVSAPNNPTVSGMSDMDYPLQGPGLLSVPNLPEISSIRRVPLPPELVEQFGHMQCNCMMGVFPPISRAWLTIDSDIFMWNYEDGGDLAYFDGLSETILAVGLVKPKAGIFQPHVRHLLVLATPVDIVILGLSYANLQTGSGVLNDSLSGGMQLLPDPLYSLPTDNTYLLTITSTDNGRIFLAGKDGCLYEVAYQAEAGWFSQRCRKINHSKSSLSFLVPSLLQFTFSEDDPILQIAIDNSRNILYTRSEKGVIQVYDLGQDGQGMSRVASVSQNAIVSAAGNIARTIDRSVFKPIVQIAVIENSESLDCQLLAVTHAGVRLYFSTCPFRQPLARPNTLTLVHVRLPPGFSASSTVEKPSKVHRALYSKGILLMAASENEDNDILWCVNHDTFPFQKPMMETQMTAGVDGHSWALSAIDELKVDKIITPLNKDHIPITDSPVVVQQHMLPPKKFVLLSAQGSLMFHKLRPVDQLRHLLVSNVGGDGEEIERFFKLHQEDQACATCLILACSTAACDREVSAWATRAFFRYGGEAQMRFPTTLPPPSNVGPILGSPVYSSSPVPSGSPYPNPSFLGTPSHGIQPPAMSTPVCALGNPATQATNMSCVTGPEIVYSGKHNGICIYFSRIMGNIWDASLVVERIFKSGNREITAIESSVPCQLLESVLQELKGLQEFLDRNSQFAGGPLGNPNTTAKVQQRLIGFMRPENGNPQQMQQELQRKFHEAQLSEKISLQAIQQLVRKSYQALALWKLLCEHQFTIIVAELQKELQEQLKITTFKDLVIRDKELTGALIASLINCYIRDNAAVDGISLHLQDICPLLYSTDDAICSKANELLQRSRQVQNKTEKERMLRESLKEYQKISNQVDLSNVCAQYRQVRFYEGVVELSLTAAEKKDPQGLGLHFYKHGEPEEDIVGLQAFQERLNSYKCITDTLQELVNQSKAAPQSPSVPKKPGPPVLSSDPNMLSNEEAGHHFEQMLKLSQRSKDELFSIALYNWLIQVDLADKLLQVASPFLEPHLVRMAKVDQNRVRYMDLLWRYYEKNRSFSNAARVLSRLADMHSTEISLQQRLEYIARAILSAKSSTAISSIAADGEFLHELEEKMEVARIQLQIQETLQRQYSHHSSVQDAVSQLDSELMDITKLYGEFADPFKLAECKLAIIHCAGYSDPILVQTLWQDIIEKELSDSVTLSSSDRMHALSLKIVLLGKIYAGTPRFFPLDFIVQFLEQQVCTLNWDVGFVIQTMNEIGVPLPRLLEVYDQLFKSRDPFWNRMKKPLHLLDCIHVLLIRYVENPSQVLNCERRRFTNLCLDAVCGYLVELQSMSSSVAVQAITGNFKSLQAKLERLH

Legend:
Assay in all cases: log2 fold change, soluble protein after heating vs DMSO (PISA); higher = thermal stabilisation; K562 lysate, 10 uM; active = over 0.2 and 3.5 SD of the protein, either way, in both replicates (recomputed)
[1] = compound: Cc1cn(-c2cc(NC(=O)c3ccc(C)c(Nc4nccc(-c5cccnc5)n4)c3)cc(C(F)(F)F)c2)cn1 [nilotinib]
Outline: (§1)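 K562 pellets were dounce-homogenised in PBS pH 7.4 containing 1 mM MgCl2, and the crude extract, at 1 mg/mL protein, was exposed to 10 μM compound for 30 min. Aliquots were heated for 3 min across 48°C-58°C, pooled, brought to 0.5% NP-40 at 4°C and spun at 21,000xg for 90 min, with the supernatant taken as soluble protein. TMTpro 16plex LC-MS/MS with equalised channel sums quantified that protein. Values are log-two fold changes in thermal stability relative to solvent controls, taken from duplicates.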

[2] = compound: Cc1nc(Nc2n[nH]c3c2CN(C(=O)N[C@H](CN(C)C)c2ccccc2)C3(C)C)c2sccc2n1
Outline: as §1

[3] = compound: Cc1nc(Nc2ncc(C(=O)Nc3c(C)cccc3Cl)s2)cc(N2CCN(CCO)CC2)n1 [dasatinib]
Outline: as §1

[4] = compound: Cc1ncc(-c2ccnc(Nc3ccc(S(C)(=O)=O)cc3)n2)n1C(C)C
Outline: as §1

[5] = compound: Cn1cc(-c2ccc3c(c2)CCN3C(=O)Cc2cccc(C(F)(F)F)c2)c2c(N)ncnc21
Outline: as §1

[6] = compound: Cn1cc(CNCC2CCN(c3ncc(C(=O)NO)cn3)CC2)c2ccccc21 [quisinostat]
Outline: as §1

[7] = compound: Cn1cncc1[C@@](N)(c1ccc(Cl)cc1)c1ccc2c(c1)c(-c1cccc(Cl)c1)cc(=O)n2C [tipifarnib]
Outline: as §1

[8] = compound: NC(=O)Nc1cc(-c2cccc(F)c2)sc1C(=O)N[C@H]1CCCNC1
Outline: as §1

[9] = compound: NC(=O)c1cnc(N[C@@H]2CCCC[C@@H]2N)nc1Nc1cccc(-n2nccn2)c1
Outline: as §1

[10] = compound: NC1(c2ccc(-c3nc4ccn5c(=O)[nH]nc5c4cc3-c3ccccc3)cc2)CCC1
Outline: as §1

Measured: log2 fold change

NUP107 (UniProt P57740)
inactive: [1] 0 | [2] -0.013 | [3] -0.057 | [4] 0.043 | [5] 0.01 | [6] -0.063 | [7] -0.087 | [8] 0.041 | [9] 0.01 | [10] -0.024

NSMCE3 (UniProt Q96MG7)
inactive: [1] -0.005 | [2] -0.043 | [3] 0.068 | [4] -0.065 | [5] 0.043 | [6] -0.092 | [7] -0.021 | [8] -0.007 | [9] 0.009 | [10] -0.042

NOL12 (UniProt Q9UGY1)
inactive: [1] 0.037 | [2] 0.215 | [3] -0.007 | [4] -0.068 | [5] 0.005 | [6] 0.028 | [7] 0.214 | [8] -0.051 | [9] -0.033 | [10] 0.046

NUP133 (UniProt Q8WUM0)
inactive: [1] 0.023 | [2] -0.006 | [3] -0.026 | [4] 0.019 | [5] 0.056 | [6] -0.092 | [7] -0.039 | [8] 0.006 | [9] 0.005 | [10] -0.016

NRAS (UniProt P01111)
inactive: [1] -0.034 | [2] 0.005 | [3] 0.011 | [4] 0.007 | [5] 0.001 | [6] 0.11 | [7] 0.013 | [8] -0.029 | [9] -0.019 | [10] 0.014

NUDT8 (UniProt Q8WV74)
inactive: [1] -0.038 | [2] 0.288 | [3] 0.108 | [4] -0.087 | [5] -0.054 | [6] -0.294 | [7] -0.136 | [8] 0.009 | [9] 0.022 | [10] 0.037

NUDT3 (UniProt O95989)
inactive: [1] 0.012 | [2] 0.034 | [3] -0.01 | [4] 0.029 | [5] -0.004 | [6] 0.149 | [7] 0.037 | [8] -0.093 | [9] -0.006 | [10] 0.012

NOM1 (UniProt Q5C9Z4)
inactive: [1] 0.096 | [2] -0.219 | [3] -0.076 | [4] -0.103 | [5] 0.196 | [6] 0.049 | [7] 0 | [8] -0.013 | [9] 0.013

NQO1 (UniProt P15559)
inactive: [1] 0.051 | [2] -0.031 | [3] 0.244 | [4] 0.022 | [5] -0.104 | [6] 0.021 | [7] 0.042 | [8] 0.042 | [9] -0.027 | [10] 0.056

NUB1 (UniProt Q9Y5A7)
inactive: [1] -0.021 | [2] 0.025 | [3] -0.03 | [4] 0.028 | [5] 0.014 | [6] 0.035 | [7] 0.003 | [8] 0.018 | [9] 0.004 | [10] -0.002

NSMCE2 (UniProt Q96MF7)
inactive: [1] 0.098 | [2] 0.04 | [3] -0.003 | [4] -0.076 | [5] 0.038 | [6] 0.035 | [7] 0.035 | [8] -0.024 | [9] 0.041 | [10] 0.149

NUBP2 (UniProt Q9Y5Y2)
inactive: [1] 0.052 | [2] 0.025 | [3] -0.002 | [4] 0.023 | [5] 0.027 | [6] -0.047 | [7] -0.001 | [8] 0.055 | [9] -0.024 | [10] -0.088

Nine neighbouring records already listed:
NSMCE3 (UniProt Q96MG7)
inactive: [1] -0.005 | [2] -0.043 | [3] 0.068 | [4] -0.065 | [5] 0.043 | [6] -0.092 | [7] -0.021 | [8] -0.007 | [9] 0.009 | [10] -0.042

NOL12 (UniProt Q9UGY1)
inactive: [1] 0.037 | [2] 0.215 | [3] -0.007 | [4] -0.068 | [5] 0.005 | [6] 0.028 | [7] 0.214 | [8] -0.051 | [9] -0.033 | [10] 0.046

NUP133 (UniProt Q8WUM0)
inactive: [1] 0.023 | [2] -0.006 | [3] -0.026 | [4] 0.019 | [5] 0.056 | [6] -0.092 | [7] -0.039 | [8] 0.006 | [9] 0.005 | [10] -0.016

NRAS (UniProt P01111)
inactive: [1] -0.034 | [2] 0.005 | [3] 0.011 | [4] 0.007 | [5] 0.001 | [6] 0.11 | [7] 0.013 | [8] -0.029 | [9] -0.019 | [10] 0.014

NUDT8 (UniProt Q8WV74)
inactive: [1] -0.038 | [2] 0.288 | [3] 0.108 | [4] -0.087 | [5] -0.054 | [6] -0.294 | [7] -0.136 | [8] 0.009 | [9] 0.022 | [10] 0.037

NUDT3 (UniProt O95989)
inactive: [1] 0.012 | [2] 0.034 | [3] -0.01 | [4] 0.029 | [5] -0.004 | [6] 0.149 | [7] 0.037 | [8] -0.093 | [9] -0.006 | [10] 0.012

NOM1 (UniProt Q5C9Z4)
inactive: [1] 0.096 | [2] -0.219 | [3] -0.076 | [4] -0.103 | [5] 0.196 | [6] 0.049 | [7] 0 | [8] -0.013 | [9] 0.013

NQO1 (UniProt P15559)
inactive: [1] 0.051 | [2] -0.031 | [3] 0.244 | [4] 0.022 | [5] -0.104 | [6] 0.021 | [7] 0.042 | [8] 0.042 | [9] -0.027 | [10] 0.056

NUB1 (UniProt Q9Y5A7)
inactive: [1] -0.021 | [2] 0.025 | [3] -0.03 | [4] 0.028 | [5] 0.014 | [6] 0.035 | [7] 0.003 | [8] 0.018 | [9] 0.004 | [10] -0.002

Remaining list, next part

NR3C1 isoform 3 (UniProt P04150)
inactive: [1] -0.021 | [2] -0.069 | [3] -0.042 | [4] 0.044 | [5] -0.014 | [6] -0.032 | [7] -0.038 | [8] 0.035 | [9] 0.03 | [10] -0.021

NOP14 (UniProt P78316)
inactive: [1] -0.066 | [2] 0.004 | [3] -0.037 | [4] 0.003 | [5] 0.011 | [6] 0.026 | [7] 0.025 | [8] 0.058 | [9] 0.013 | [10] 0.011

NT5DC1 (UniProt Q5TFE4)
inactive: [1] -0.006 | [2] 0.047 | [3] 0.021 | [4] -0.044 | [5] 0.002 | [6] -0.051 | [7] -0.019 | [8] -0.024 | [9] 0.016 | [10] -0.002

NUDT4 (UniProt Q9NZJ9)
inactive: [1] 0.115 | [2] -0.03 | [3] 0.038 | [4] -0.002 | [5] 0.006 | [6] 0.129 | [7] 0.11 | [8] 0.018 | [9] -0.059 | [10] 0.022

NSL1 (UniProt Q96IY1)
inactive: [1] -0.018 | [2] 0.005 | [3] -0.01 | [4] -0.014 | [5] 0 | [6] -0.009 | [7] 0.024 | [8] -0.003 | [9] 0.01 | [10] -0.007

NUF2 (UniProt Q9BZD4)
inactive: [1] -0.011 | [2] 0.002 | [3] -0.044 | [4] -0.005 | [5] 0.017 | [6] -0.012 | [7] 0.003 | [8] 0.061 | [9] 0.013 | [10] -0.014

NUBP1 (UniProt P53384)
inactive: [1] 0.027 | [2] -0.011 | [3] 0.008 | [4] -0.007 | [5] 0.021 | [6] 0.036 | [7] 0.033 | [8] -0.012 | [9] -0.007 | [10] 0.033

NSUN2 (UniProt Q08J23)
inactive: [1] 0.013 | [2] -0.004 | [3] -0.023 | [4] -0.005 | [5] 0.022 | [6] 0.007 | [7] 0.027 | [8] 0.024 | [9] -0.009 | [10] -0.011

NOP2 isoform 4 (UniProt P46087)
inactive: [1] 0.035 | [2] -0.004 | [3] 0.004 | [4] -0.005 | [5] 0.004 | [6] -0.025 | [7] 0.016 | [8] -0.002 | [9] 0.008 | [10] -0.014

NMRAL1 (UniProt Q9HBL8)
inactive: [1] -0.017 | [2] 0.004 | [3] -0.035 | [4] -0.005 | [5] -0.039 | [6] 0.025 | [7] 0.01 | [8] -0.021 | [9] 0.012 | [10] 0.045

NSUN5 isoform 2 (UniProt Q96P11)
inactive: [1] 0.016 | [2] -0.009 | [3] -0.043 | [4] 0.022 | [5] 0.004 | [6] -0.008 | [7] 0.023 | [8] 0.048 | [9] 0 | [10] 0.018

NUDCD2 (UniProt Q8WVJ2)
inactive: [1] 0.011 | [2] 0.026 | [3] 0.02 | [4] -0.003 | [5] -0.033 | [6] 0.036 | [7] 0.028 | [8] 0.004 | [9] -0.064 | [10] -0.09

NSUN6 (UniProt Q8TEA1)
inactive: [1] -0.025 | [2] 0.006 | [3] -0.045 | [4] -0.027 | [5] 0.03 | [6] 0.055 | [7] 0.007 | [8] -0.013 | [9] 0.015 | [10] 0.023

NMNAT1 (UniProt Q9HAN9)
inactive: [1] 0.012 | [2] -0.048 | [3] -0.016 | [4] -0.002 | [5] 0.063 | [6] -0.028 | [7] -0.018 | [8] 0.006 | [9] 0.013 | [10] -0.006

NRBP1 (UniProt Q9UHY1)
inactive: [1] 0.059 | [2] -0.034 | [3] 0.05 | [4] 0.019 | [5] -0.011 | [6] -0.007 | [7] 0.041 | [8] 0.004 | [9] 0 | [10] 0.008

NSDHL (UniProt Q15738)
inactive: [1] 0.012 | [2] 0.074 | [3] 0.001 | [4] 0.006 | [5] -0.039 | [6] -0.044 | [7] 0.012 | [8] 0.002 | [9] 0.003 | [10] -0.001

NT5C (UniProt Q8TCD5)
inactive: [1] 0.015 | [2] -0.048 | [3] -0.015 | [4] -0.16 | [5] -0.025 | [6] -0.004 | [7] 0.029 | [8] -0.019 | [9] 0.015 | [10] 0.012

NUP155 (UniProt O75694)
inactive: [1] 0.052 | [2] 0.045 | [3] -0.015 | [4] -0.074 | [5] 0.018 | [6] -0.037 | [7] -0.071 | [8] 0.074 | [9] 0.023 | [10] 0.032
